According to doi:10.1101/2021.05.19.444837:

Tests used:
[1] = target: T1, TUT3 (yeast two-hybrid fusion) (Trypanosoma brucei) (UniProt Q6B9Y8); experiment: two-hybrid
T1 sequence: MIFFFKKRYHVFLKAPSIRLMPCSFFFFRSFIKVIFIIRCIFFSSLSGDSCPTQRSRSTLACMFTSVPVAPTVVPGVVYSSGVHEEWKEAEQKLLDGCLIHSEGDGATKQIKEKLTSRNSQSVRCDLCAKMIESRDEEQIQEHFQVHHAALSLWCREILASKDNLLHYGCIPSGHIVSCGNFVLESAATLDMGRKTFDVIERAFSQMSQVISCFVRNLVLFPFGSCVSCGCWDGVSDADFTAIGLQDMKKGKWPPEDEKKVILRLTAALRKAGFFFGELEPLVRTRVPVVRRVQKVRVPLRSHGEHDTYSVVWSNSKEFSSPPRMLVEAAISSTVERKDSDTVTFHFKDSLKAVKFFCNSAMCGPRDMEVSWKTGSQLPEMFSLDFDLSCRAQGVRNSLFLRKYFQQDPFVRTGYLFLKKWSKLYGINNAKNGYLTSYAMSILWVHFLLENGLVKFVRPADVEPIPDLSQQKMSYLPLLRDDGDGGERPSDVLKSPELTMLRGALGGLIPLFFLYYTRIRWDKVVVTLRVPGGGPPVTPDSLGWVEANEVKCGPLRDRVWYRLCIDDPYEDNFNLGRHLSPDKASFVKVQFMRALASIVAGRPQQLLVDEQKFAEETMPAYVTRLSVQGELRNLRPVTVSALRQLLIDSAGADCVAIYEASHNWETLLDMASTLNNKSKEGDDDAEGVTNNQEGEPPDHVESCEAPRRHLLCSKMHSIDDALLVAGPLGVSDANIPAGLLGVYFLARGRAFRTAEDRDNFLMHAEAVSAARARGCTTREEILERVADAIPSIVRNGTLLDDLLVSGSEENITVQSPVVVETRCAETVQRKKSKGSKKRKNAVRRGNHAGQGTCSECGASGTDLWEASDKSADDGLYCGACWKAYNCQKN

[2] = target: T2, TUT3-myc (Trypanosoma brucei) (UniProt Q6B9Y8); experiment: co-IP
T2 sequence: T1 sequence

[3] = target: 4EIP (yeast two-hybrid fusion) (Trypanosoma brucei); experiment: two-hybrid
[4] = target: 4EIP-V5 (Trypanosoma brucei); experiment: co-IP

**Q.** How did the binding [1] turn out when “T. brucei homolog of Dis3L2 (yeast two-hybrid fusion) (Trypanosoma brucei) (enzyme)” was run?
**A.** Its binding is “no binding”.

**Q.** With “4EIP (yeast two-hybrid fusion) (Trypanosoma brucei)” as the molecule, how does the binding [1] read?
**A.** The binding was “binds”.

**Q.** 4EIP-V5 (Trypanosoma brucei) was tested. Which binding [2] did it give?
**A.** Its binding is “binds”.

B1: TUT3 (yeast two-hybrid fusion) (enzyme, UniProt Q6B9Y8 1-889)
chain: T1 sequence
**Q.** B1 was tested. Which binding [3] did it give?
**A.** The binding was “binds”.

B2: TUT3-myc (enzyme, UniProt Q6B9Y8 1-889)
chain: T1 sequence
**Q.** For B2, which binding [4] is on record?
**A.** Its binding is “binds”.

No constants are given. Whether binding was seen depends on the method and setting. Binding calls can cover weak binding; strength is not graded here. Tags and fused reporters may be left off the sequences shown. For some assays here: In cells and extracts the contact can be indirect.
